Paper PMC5301934
These are yes or no findings as the source states them, for the method shown. In cells and extracts the contact can be indirect. Some results given as binding are weak or reduced against the parent protein; the word gives no strength. Sequences can lack the tags named with a protein.

Sequences of proteins named here, by UniProt entry; tags and fusion partners are left off.
UniProt P14713: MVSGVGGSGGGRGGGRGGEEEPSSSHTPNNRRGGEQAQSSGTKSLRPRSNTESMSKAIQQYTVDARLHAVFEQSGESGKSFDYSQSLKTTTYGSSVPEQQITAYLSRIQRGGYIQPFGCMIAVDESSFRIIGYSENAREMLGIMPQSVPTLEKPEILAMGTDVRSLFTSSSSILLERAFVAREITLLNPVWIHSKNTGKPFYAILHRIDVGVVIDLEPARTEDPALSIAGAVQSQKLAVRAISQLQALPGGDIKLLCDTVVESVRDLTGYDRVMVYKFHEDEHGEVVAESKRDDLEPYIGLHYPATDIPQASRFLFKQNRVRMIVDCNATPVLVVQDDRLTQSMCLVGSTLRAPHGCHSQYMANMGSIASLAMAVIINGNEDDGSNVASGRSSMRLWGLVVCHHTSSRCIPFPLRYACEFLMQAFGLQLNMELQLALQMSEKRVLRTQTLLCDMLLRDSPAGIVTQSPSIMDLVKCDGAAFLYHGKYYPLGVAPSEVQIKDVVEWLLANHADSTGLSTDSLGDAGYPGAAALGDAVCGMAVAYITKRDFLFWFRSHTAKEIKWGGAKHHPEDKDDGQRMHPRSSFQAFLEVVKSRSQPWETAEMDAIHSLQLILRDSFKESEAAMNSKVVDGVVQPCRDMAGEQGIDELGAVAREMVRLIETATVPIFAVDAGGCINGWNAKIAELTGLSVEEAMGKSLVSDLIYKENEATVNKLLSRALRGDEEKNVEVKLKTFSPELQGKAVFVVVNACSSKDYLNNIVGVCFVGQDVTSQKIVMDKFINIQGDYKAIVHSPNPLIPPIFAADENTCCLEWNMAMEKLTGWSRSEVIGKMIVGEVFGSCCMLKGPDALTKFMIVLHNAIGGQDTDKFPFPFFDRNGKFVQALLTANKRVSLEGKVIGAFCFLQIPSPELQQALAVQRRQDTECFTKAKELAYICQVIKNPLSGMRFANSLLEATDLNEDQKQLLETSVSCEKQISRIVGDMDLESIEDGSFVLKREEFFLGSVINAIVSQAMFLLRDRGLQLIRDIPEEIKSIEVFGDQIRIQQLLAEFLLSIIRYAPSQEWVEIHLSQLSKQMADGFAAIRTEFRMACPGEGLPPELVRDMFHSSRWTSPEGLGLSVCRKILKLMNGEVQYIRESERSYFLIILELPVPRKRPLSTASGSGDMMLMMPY

What was measured:
[1] = target: T1, Arabidopsis PIF3 (AtPIF3) fused to the yeast GAL4 activation domain, in vitro translated (Arabidopsis) (UniProt O80536); assay: co-IP; in vitro; 35S-labelled TNT proteins; GAD:PIF bait on Protein A Dynabeads through anti-GAD antibody; holophytochrome (phycocyanobilin) as prey in the Pr form (red light, then 5 min far-red light); 4 °C, 4 h in darkness; PBS pH 7.25, 0.1% Tergitol NP-40, 1 mM EDTA, 0.1 mg/ml BSA; autoradiography
T1 sequence (chain, 35S-methionine label): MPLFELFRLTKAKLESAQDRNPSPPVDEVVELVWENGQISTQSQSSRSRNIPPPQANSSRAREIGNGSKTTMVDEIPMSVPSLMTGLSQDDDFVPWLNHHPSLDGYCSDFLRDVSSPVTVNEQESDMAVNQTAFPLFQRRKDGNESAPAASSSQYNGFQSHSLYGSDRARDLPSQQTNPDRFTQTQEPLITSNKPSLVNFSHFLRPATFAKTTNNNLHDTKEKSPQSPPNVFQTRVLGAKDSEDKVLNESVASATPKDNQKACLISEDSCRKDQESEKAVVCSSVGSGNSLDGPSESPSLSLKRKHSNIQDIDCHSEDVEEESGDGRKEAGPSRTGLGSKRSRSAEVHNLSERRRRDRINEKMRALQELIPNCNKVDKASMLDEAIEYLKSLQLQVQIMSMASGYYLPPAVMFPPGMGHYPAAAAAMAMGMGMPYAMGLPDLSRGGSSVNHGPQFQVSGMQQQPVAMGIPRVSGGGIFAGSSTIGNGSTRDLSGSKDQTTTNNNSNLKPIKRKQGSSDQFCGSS

[2] = target: T1, Arabidopsis PIF3 (AtPIF3) fused to the yeast GAL4 activation domain, in vitro translated (Arabidopsis); assay: co-IP; in vitro; 35S-labelled TNT proteins; GAD:PIF bait on Protein A Dynabeads through anti-GAD antibody; holophytochrome (phycocyanobilin) as prey in the Pfr form (10 min red light); 4 °C, 4 h in darkness; PBS pH 7.25, 0.1% Tergitol NP-40, 1 mM EDTA, 0.1 mg/ml BSA; autoradiography

binding [2]: binds
Substance: Arabidopsis phyB holophytochrome (AtphyB) (from UniProt P14713 1-1172)
binding [1]: no binding (condition: Pr form (after far-red light))
